The other results are listed elsewhere or left out.
B1: il2ra_site1_3nfp_normal_mot_HHH_b2_04095_af2_000000160_0001_43_56_H_._5a7f42ee72c73fa248482b5f4de50dd1_0001_0001_0000100002_0000001_0 (protein)
chain: SEKAIEQIVRAIKKQARDPEVEEILEEVEELLKKDPEEAIRLLLELAEKLGDKIAERLLRQLLEL
B2: il2ra_site2_3nfp_normal_mot_HHH_b2_02437_000000052_0001_42_56_H_._HHH_b1_07210_0001_0000400027_0000001_0 (protein)
chain: SSSSDEEEVERLLEEAQELIRQGNPEEAREALARATHIAYENRNAELFALIAEVLLLLAKLSSSS
B3: il2ra_site2_3nfp_normal_mot_73f63e3ba0c5fbd29b02c38bc3203c89_0001_1_000000101_0001_17_33_H_._HHH_b2_06677_0001_0000100009_0000001_0 (protein)
chain: SSSSEEEERIRELLEELERVLKEGDEEEARRLEREIVNLIYETNNHELFALLQEIIIRFLRSSSS
B4: il2ra_site2_2erj_sap_23_mot_dcd9809507f71d420582ead1f1e1bbb3_0001_000000226_0001_37_50_H_._0d160416ff403e1e2deb16f10056a110_0001_0001_0000700021_0000001_0_0001_ … (protein)
chain: SSSSSSSEDEERVEELLEQAKRIPNIKEALKLLEEAAKIALESNNEELVELIDRVLQELSSSSSS
B5: il2ra_site1_1z92_normal_mot_54e474eed2d0515e81978198f0f96ec2_0001_000000202_0001_15_30_H_._15f70e71ac3214bf43105af5abf4654e_0001_1_af2_0001_0000200012_0000001_0 … (protein)
chain: SEEAARKDLQRSLELGVPPRSVVLAVLRALERHLGDPEEALEVIERAIELLNDPELREVVEKLKP
B6: il2ra_site1_2b5i_sap_10_mot_HHH_b1_06833_000000178_0001_1_19_H_._HHH_b1_07629_0001_0000100001_0000001_0_0001_af2pred_dldesign_0_af2pred (protein)
chain: SSSSRESLERYARRLARMLARAAGLSEEAFRELEAEGIRLLEEGVSPREVFERLSARAIELSSSS
B7: il2ra_site2_3nfp_normal_mot_HHH_b2_06150_000000217_0001_39_53_H_._HHH_b1_05978_0001_0000600023_0000001_0 (protein)
chain: SSSSSEEEFEELHRRLEEAAEKGDEERFRELSALITHLAYELRDPRLFAIVAELLYLFEKLSSSS
B8: il2ra_site1_3nfp_normal_mot_HHH_b1_03014_af2_000000204_0001_43_57_H_._HHH_b2_06925_0001_0000100001_0000001_0_1_af2pred_dldesign_0_af2pred (protein)
chain: SSSSSNKDEKYFEAVLRRLKNLTDPEKIKRLSDNALRTLKQANNPEKIAELEKLMAELESSSSSS
B9: il2ra_site1_1z92_normal_mot_HHH_b2_04974_000000012_0001_1_17_H_._HHH_b2_02129_af2_0001_0000100009_0000001_0_af2pred_0001_af2pred (protein)
chain: SSSSSDTDDELAEVVIRLAIELGLSIEQIKELHELAIELLQRGLSEEEIERLLEELAKRLSSSSS
B10: il2ra_site1_3nfp_normal_mot_05aa7e744345dd736dff7248ed86ef87_0001_1_000000048_0001_54_65_H_._HEEHE_2188_0001_0000500017_0000001_0 (protein)
chain: HQERAIERLVEDAARAAGVEEVSVSVENGEITVELRGDNEAARAVEEALKKLAELFGIPVEVEIN
B11: il2ra_site1_2b5i_normal_mot_HHH_b2_04910_000000118_0001_1_19_H_._HHH_b1_03479_0001_0000300021_0000001_0_af2pred_0001_af2pred_1 (protein)
chain: SSSSNDLAEKVLRILKEANELAKNGDPEEAEELLRELVEELRELGNKALVKFVEAALKLARSSSS
B12: il2ra_site2_2erj_sap_22_mot_HHH_b1_01799_af2_000000125_0001_1_17_H_._HHH_b2_06422_0001_0000400004_0000001_0_0001 (protein)
chain: SSSSSVQELAEEAKELAEELNNEDAEEMIELLLRRYEEEGDESFRRMLEDLLRMLRRLLDSSSSS
B13: il2ra_site2_2erj_normal_mot_HHH_b1_02757_000000121_0001_41_57_H_._HHH_b1_06793_af2_0001_0000300025_0000001_0_af2pred_0001_1_af2pred_swapped (protein)
chain: SSSSSSSEVEERVRELLEEAKHVSDLRRAMELLEEASRLAAENDDDELFQLVDKVFQELSSSSSS
B14: il2ra_site1_3nfp_sap_14_mot_HHH_b2_00205_af2_000000209_0001_44_57_H_._bb09b1289b3eca34408f33f278303ce4_0001_1_af2_0001_0000200018_0000001_0_0001_af2pred_0001_af … (protein)
chain: SSSDDRERILELLREAYELVKNGNPEEARELLEEALKLAQELNSEATAKFLEAALRILESLSSSS
B15: il2ra_site1_3nfp_normal_mot_HHH_b2_06780_000000262_0001_1_19_H_._6417e6f601d619eabc23df3f3aa4305e_0001_0001_0000300011_0000001_0_af2pred_0001_af2pred_1_swapped (protein)
chain: SEELLEELAEELGDPKVREVVKLLEEARRHGDPEASRRFDRLLRELARRGIIPPEVVLRVLREAA
B16: il2ra_site1_3nfp_sap_13_mot_HHH_b2_04287_000000160_0001_19_35_H_._7abaf38a3307e851c9e6880adce6b300_0001_1_0001_0000100002_0000001_0_0001 (protein)
chain: SDRDLEFHEEVFRILAEAIRRKVNAEELAEEIEELLERAEEIGADHAKRAAERLLETAERFLRSS
B17: il2ra_site2_3nfp_sap_12_mot_HHH_b2_03978_000000149_0001_1_20_H_._HHH_b1_05549_af2_0001_0000300017_0000001_0_0001 (protein)
chain: SSSSSDVEEEVRELLEQAEKTEDPEEVRRLFAKAAHLAFERNDPELFMEVAEVALRLHRSSSSSS
B18: il2ra_site2_2erj_sap_26_mot_3b06bd03f1c6bceadc68eab912867b79_0001_000000296_0001_36_50_H_._HHH_b2_02291_0001_0000500048_0000001_0_0001 (protein)
chain: SSSSSSEYREEIEELIEEARRVSEEEAEKLLSEAFELAFENNDVEIASEVIEEMAKLAHASSSSS
B19: il2ra_site1_1z92_sap_28_mot_HHH_b1_00661_af2_000000033_0001_38_50_H_._HHH_b2_00267_af2_0001_0000300009_0000001_0_0001_af2pred_0001_af2pred_1 (protein)
chain: PEELAEQAEELLKNGNPEEAEKVLRELAKELGNEEVFERDLEHAERNLGNPEQALLSLIKALSFV

Biological target: il2ra, P01589
Assay: yeast display titration

Apparent Kd, inactive:
B1 no binding seen
B2 no binding seen
B3 no binding seen
B4 no binding seen
B5 no binding seen
B6 no binding seen
B7 no binding seen
B8 no binding seen
B9 no binding seen
B10 no binding seen
B11 no binding seen
B12 no binding seen
B13 no binding seen
B14 no binding seen
B15 no binding seen
B16 no binding seen
B17 no binding seen
B18 no binding seen
B19 no binding seen

From paper PMC10163288
